The record followed here is PubChem BioAssay AID662 (National Center for Advancing Translational Sciences (NCATS), 2007).

The structures appear in SMILES notation. The list shows a part of the results. These are further read-outs of the screen, such as a control signal, another cell line or another target. No call is given for them. The list favours compounds with an active or inconclusive main result. Potencies come from curve fits of mixed quality, noted in brackets.

The assay can be described thus: Cell signaling CRE-BLA (Fsk stim). The settings on record: CHO CRE-bla reporter (cAMP response element driving beta-lactamase), forskolin EC10, beta-lactamase ratio; measured here: 460 nm blue channel. A digest of the protocol:
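Titrated compounds plus EC10 NKH 477 on CHO CRE-bla cells, 3 h, 37 °C. CCF4, 2 h RT. Ratio 460/530 nm → AC50.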
On to `Cc1oc2cc3oc(=O)c4c(c3cc2c1C)CCC4`, for which the half-maximal activity concentration (AC50) (in general, the concentration at which the activity in the assay is half-maximal) is 0.398 µM [falling, partial curve]. In the case of `CCOC(=O)c1c(C)oc2c1c(C=NCc1ccccn1)c(O)c1ccccc12`, the AC50 was 31.6 µM [falling, single point].

In the case of `Cc1noc(C)c1CSc1ncnc2ccccc12`, the AC50 is 10 µM [rising, partial curve]. Next, `CC(C(=O)N(C1CC1)C1(C(=O)Nc2ccccc2)CCCC1)N1C(=O)c2ccccc2C1=O` (configuration not stated): 10 µM [falling, single point]; `CCCCCn1c(SCC#N)nc2cc(C(=O)NCC3CCCO3)ccc2c1=O` (configuration not stated): 2.51 µM [rising, full curve]. In the case of `COCCCNC(=O)c1ccc(Cn2c(=O)[nH]c3ccccc3c2=O)cc1` it was 10 µM [rising, partial curve]; in that of `O=c1cc(-c2ccccc2)nc2n1Cc1ccccc1-2`, 15.8 µM [rising, single point]; in that of `N#CCSc1nc2ccccc2c(=O)n1CCC(=O)NC1CCCCC1`, 5.01 µM [falling, partial curve]. Regarding `CC(C)CCn1nc(C(=O)OC(C)C(=O)NC(N)=O)c2ccccc2c1=O` (configuration not stated), the AC50 is 3.98 µM [rising, partial curve].

`CNS(=O)(=O)c1cccc(C(=O)OCC(=O)Nc2ccccc2OC(F)F)c1`: the half-maximal activity concentration (AC50) was 0.00398 µM [falling, full curve, poor fit].

`C=CCNc1ncnc2c1cnn2-c1cccc(C)c1`: the concentration at half-maximal activity (AC50) was 10 µM [rising, partial curve]. Consider `COc1ccc(CCNC(=O)C2CCN(S(=O)(=O)N3CCCCCC3)CC2)cc1OC`, for which the AC50 was 3.16 µM [falling, partial curve, poor fit]. With `Cc1ccc2c(n1)sc1c(N)ncnc12`, the AC50 was 12.6 µM [rising, partial curve].

In the case of `COc1ccc(CNc2cc(-c3cccc(NS(C)(=O)=O)c3)ncn2)c(OC)c1`, the concentration at half-maximal activity (AC50) is 7.94 µM [rising, partial curve].

`Cc1c(CCC(=O)O)c(=O)oc2cc3occ(-c4ccc(F)cc4)c3cc12`: the AC50 is 12.6 µM [rising, partial curve]. For `N#Cc1cn(CC(=O)NCC2CCCO2)c2ccccc12` (configuration not stated), the AC50 is 0.00316 µM [falling, full curve, poor fit]. In the case of `COc1cccc(C2C(C(=O)c3cc4ccccc4o3)=C(O)C(=O)N2c2cc(C)on2)c1OC` (configuration not stated) it was 25.1 µM [rising, single point]. `CSc1nc2nc(-c3ccccc3)cc(C(F)(F)F)n2n1`: the concentration at half-maximal activity (AC50) is 25.1 µM [rising, single point]. As for `CCc1ccc(CCC(=O)O)nc1`, the AC50 was 1 µM [rising, single point]. With `COC(=O)C1C(=O)C2=C(CC1C)NC(C)=C(C(=O)OC(C)C)C2c1ccc(OC)c(O)c1` (configuration not stated), the AC50 was 3.16 µM [rising, full curve, poor fit].

Turning to `CCOc1ccc(-c2[nH]ncc2-c2ccc(OC)c(OC)c2)c(O)c1`, the AC50 was 0.794 µM [rising, full curve, poor fit]. On to `CC1(C)Cc2ccccc2-c2nc3ccccc3c(=O)n21`, for which the AC50 is 12.6 µM [rising, single point]. Take `COc1ccccc1N1CCN(CC(=O)c2c(C)[nH]c3ccccc23)CC1`: the AC50 was 15.8 µM [falling, partial curve, poor fit]. Consider `CCOC(=O)Nc1ccc2c(c1)N(C(=O)CCN1CCN3CCCC3C1)c1ccccc1CC2` (configuration not stated), for which the AC50 was 3.16 µM [falling, full curve, poor fit]. `Cc1cc(C)c2cc(C#N)c(N3CCCC3)nc2c1`: the AC50 was 12.6 µM [rising, partial curve]. Next, `COc1ccc(N2CC(C)Cn3c2nc2c3c(=O)n(Cc3ccc(F)cc3)c(=O)n2C)c(OC)c1` (configuration not stated): 10 µM [rising, single point]; `COc1ccc(C2C3=C(CC(C)(C)CC3=O)Nc3c2c(=O)[nH]c(=O)n3Cc2ccccc2)cc1` (configuration not stated): 3.16 µM [rising, partial curve]. In the case of `CC1Cc2ccccc2N1C(=O)CSc1nc2ccccc2n1CC(=O)N1CCOCC1` (configuration not stated) it was 12.6 µM [rising, single point]; in that of `CCOC(=O)c1cn(CC)c2cc(N3CCSCC3)c(F)cc2c1=O`, 25.1 µM [rising, single point]. For `O=C(c1ccco1)N1CCN(CC(O)COc2ccc3oc4ccccc4c3c2)CC1` (configuration not stated), the AC50 is 0.1 µM [falling, single point]. Next, `N#Cc1c(NC(=O)C(F)(F)F)sc2c3c(=O)c4ccccc4c(=O)c=3oc3ccccc3c12`: 0.501 µM [rising, single point]; `COc1ccccc1N(C)S(=O)(=O)c1ccc(C(=O)NC2=NCCS2)cc1`: 12.6 µM [rising, single point]; `NC(=O)c1c(NC(=O)c2cccs2)sc2c1CCCCCC2`: 6.31 µM [rising, partial curve]. Next, `O=C(OCC(=O)N1CCN(C(=O)c2ccco2)CC1)c1cc(-c2ccc(F)cc2)nc2ccccc12`: 12.6 µM [rising, single point]; `CCN1CCc2nc(NC(=O)Cc3ccc4c(c3)OCCO4)sc2C1`: 1 µM [falling, single point]. `CCOC(=O)N1CCC(=C2c3ccc(Cl)cc3CCc3cccnc32)CC1`: the AC50 was 25.1 µM [falling, partial curve, poor fit].

As for `CCCCn1ccnc1C(=O)c1ccc(S(=O)(=O)N(CCOC)CCOC)cc1`, the AC50 was 3.16 µM [rising, single point]. Turning to `Cc1cc(O)c(-c2cc(C(=O)Nc3ccc(S(=O)(=O)N4CCOCC4)cc3)[nH]n2)cc1C`, the AC50 was 0.251 µM [rising, partial curve].

Turning to `COc1cccc(CNc2ccc(S(=O)(=O)Nc3nccs3)cc2)c1O`, the AC50 was 25.1 µM [rising, single point].

Consider `O=C(c1ccco1)N1CCN(Cc2ccccc2C(F)(F)F)CC1`, for which the half-maximal activity concentration (AC50) is 1 µM [rising, single point].

For the molecule `O=C(Cc1cn2ccsc2n1)Nc1nc2c(s1)CCCC2`, the AC50 is 7.94 µM [rising, partial curve, poor fit]. Turning to `N[C@H](CC(=O)O)C(=O)O`, the AC50 is 31.6 µM [falling, single point].
